One substance from PMC3458851 can be followed below.

Protein sequences, listed by entry. Tags and fused reporters are not part of them.
UniProt P49841: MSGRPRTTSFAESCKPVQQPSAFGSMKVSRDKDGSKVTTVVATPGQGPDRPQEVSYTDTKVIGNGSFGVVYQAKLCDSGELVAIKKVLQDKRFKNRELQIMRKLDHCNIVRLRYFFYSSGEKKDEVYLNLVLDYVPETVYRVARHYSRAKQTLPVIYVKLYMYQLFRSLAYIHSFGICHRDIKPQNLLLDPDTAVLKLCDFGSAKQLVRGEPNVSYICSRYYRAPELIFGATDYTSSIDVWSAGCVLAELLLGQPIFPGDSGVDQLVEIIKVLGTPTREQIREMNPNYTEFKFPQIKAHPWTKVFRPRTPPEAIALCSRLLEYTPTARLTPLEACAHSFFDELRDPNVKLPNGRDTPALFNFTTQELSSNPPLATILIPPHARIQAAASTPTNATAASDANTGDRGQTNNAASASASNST

Results are given in words; binding and its absence hold for the method and conditions named. In cells and extracts the contact can be indirect. Some entries that bind do so weakly or less than the wild type.

For the test, the target named is T1, SARI (suppressor of AP-1, regulated by IFN) (human) (UniProt Q8N1L9).
T1 sequence: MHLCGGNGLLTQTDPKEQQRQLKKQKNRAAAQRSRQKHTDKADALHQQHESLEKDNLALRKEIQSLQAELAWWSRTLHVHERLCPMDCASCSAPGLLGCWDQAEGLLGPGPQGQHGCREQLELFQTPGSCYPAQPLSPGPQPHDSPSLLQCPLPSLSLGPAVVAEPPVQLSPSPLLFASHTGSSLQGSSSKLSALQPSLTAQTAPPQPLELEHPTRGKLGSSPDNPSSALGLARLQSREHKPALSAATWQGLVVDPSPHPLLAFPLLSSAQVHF
Put plainly: co-IP; lysates of GLC-82 cells transfected with control vector or SARI; lysis buffer 50 mM Tris-HCl pH 7.5, 150 mM NaCl, 0.1% Triton X-100, 1 mM EDTA, on ice; immunoprecipitated with GSK-3β, PP2A or SARI antibodies, western blot with SARI, Flag, PP2A or GSK3β antibodies. (In general: Immunoblotting shows a protein as a band on a membrane.)

On to “Glycogen synthase kinase (GSK)-3β (from UniProt P49841 1-420) (enzyme)”, for which the binding result is reported as “binds”.
